PubChem BioAssay AID652243 – Drosophila RNAi Screening Center | 2013

Screen: 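Knock-downs that decrease or increase androgen receptor reporter signal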 (primary screen)
Cell system: Drosophila S2R+ cells
Knock-down reagent: long dsRNA against Drosophila genes
Time to read-out: 72 h (48 h, then 24 h hormone)
Treatment: synthetic androgen R1881 at 10 nM for 24 h
Detection: 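Per-well raw luminescence of the androgen-driven firefly reporter and of the Renilla control, two replicates each, without normalisation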
Reading the numbers: firefly reporter light: higher = more light from androgen-responsive reporter; Renilla control light: higher = more constitutive control signal (cell number, transfection)
Active means: 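Hit when the log firefly-to-Renilla ratio dropped or increased by a fixed fold versus the mean of GFP or LacZ controls across duplicate plates; lowering cut given as 1.5 and as 3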
Meaning of the calls: active = hit: reporter lowered or raised; inactive = no hit
The deposit covers about 24,000 reagents; below is a random part of those that have a named target and a result. In the full data, 246 (1%) got an active call. 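Plates not normalised; calls are printed but the firefly/Renilla ratio behind them is not deposited; fold cut for lowering reported inconsistently.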 The raw values are shown without normalisation. Names joined by + are all predicted targets of the reagent. Not stated in the record: the amount of reagent.

gene,dsRNA,"firefly reporter light, replicate 1","firefly reporter light, replicate 2","Renilla control light, replicate 1","Renilla control light, replicate 2",outcome
Alas,DRSC04044,8.00e5,5.90e5,1.51e6,1.17e6,inactive
Wsck,DRSC13682,2.18e5,1.15e5,1.72e5,2.21e5,inactive
Wsck,DRSC28781,3.42e5,4.05e5,1.15e6,1.60e6,inactive
Wsck,DRSC37076,,,,,inactive
bcd,DRSC12624,71320,26500,3.35e5,4.00e5,inactive
bcd,DRSC25303,6.77e5,8.86e5,9.60e5,9.04e5,inactive
Tif-IA,DRSC03717,5.52e5,6.02e5,2.52e6,2.19e6,inactive
Tif-IA,DRSC03726,1.96e5,2.14e5,1.43e6,1.46e6,inactive
CG4546,DRSC15593,1.13e5,1.45e5,1.63e6,2.33e6,inactive
CG4546,DRSC29584,6.11e5,7.97e5,1.74e6,1.74e6,inactive
CG31223,DRSC15115,1.18e5,1.44e5,5.47e5,5.80e5,inactive
RpS15Ab + RpS15Aa,DRSC06129,2.14e5,1.81e5,7.77e5,1.07e6,inactive
RpS15Ab + RpS15Aa,DRSC19831,3.60e5,3.04e5,1.62e6,1.60e6,inactive
LBR,DRSC04298,6.17e5,6.17e5,3.02e6,2.90e6,inactive
LBR,DRSC29462,9.46e5,1.09e6,1.45e6,1.45e6,inactive
CG4338,DRSC15564,1.26e5,66338,8.10e5,4.63e5,inactive
dock,DRSC00812,6.32e5,7.40e5,1.47e6,1.19e6,inactive
dock,DRSC27610,3.29e5,2.34e5,2.94e5,6.00e5,inactive
Cypl,DRSC08362,1.14e5,1.22e5,1.43e6,1.77e6,inactive
Cypl,DRSC25421,5.96e5,6.52e5,5.62e5,5.43e5,inactive

Single entries from the list:
Entry for RpS15Ab + RpS15Aa [DRSC19831] in “outcome”: inactive
Under “Renilla control light, replicate 1”, bcd [DRSC25303] is entered as 9.60e5
Entry of Tif-IA [DRSC03726] in “firefly reporter light, replicate 2”: 2.14e5
Value for Cypl [DRSC08362] in “firefly reporter light, replicate 1”: 1.14e5

The listing continues.
gene,dsRNA,"firefly reporter light, replicate 1","firefly reporter light, replicate 2","Renilla control light, replicate 1","Renilla control light, replicate 2",outcome
Lapsyn,DRSC04249,8.35e5,5.18e5,9.76e5,7.52e5,inactive
Gprk1,DRSC20732,1.79e5,1.91e5,1.87e5,1.48e5,inactive
Gprk1,DRSC20916,6.75e5,1.17e6,6.51e5,7.00e5,inactive
Gprk1,DRSC39307,,,,,inactive
CG34277 + CG31542,DRSC21544,2.55e5,2.56e5,7.84e5,4.48e5,inactive
CG34277 + CG31542,DRSC25567,7.47e5,5.82e5,7.05e5,7.10e5,inactive
CG34277 + CG31542,DRSC38642,6.87e5,6.87e5,2.11e6,2.41e6,inactive
Rme-8,DRSC07054,8.71e5,7.86e5,3.07e6,2.81e6,inactive
CG13605,DRSC14608,80060,70299,6.25e5,4.02e5,inactive
CG14107,DRSC10110,1.05e5,51575,1.27e6,6.68e5,inactive
CG14107,DRSC25136,8.15e5,7.01e5,7.07e5,6.92e5,inactive
CG13443,DRSC06403,61816,1.25e5,7.27e5,1.21e6,inactive
CG34028,DRSC38800,6.33e5,5.26e5,1.75e6,1.34e6,inactive
CG14743,DRSC06479,3.26e5,2.59e5,1.69e6,1.29e6,inactive
htl,DRSC16968,65658,48573,3.18e5,4.88e5,inactive
htl,DRSC36668,5.27e5,6.50e5,1.19e6,1.26e6,inactive
pkaap,DRSC01925,1.01e5,1.79e5,1.31e6,2.40e6,inactive
pkaap,DRSC36967,,,,,inactive
pkaap,DRSC36968,,,,,inactive
CG40485,DRSC38788,8.18e5,8.11e5,1.41e6,1.63e6,inactive
